Substitutions are numbered along the chain they refer to. Construct, isoform or probe ends are uncertain for at least one entry. A weaker result is weaker than the reference pair of the same experiment. Where a protein sequence is shown, tags need not be part of it.
Tests used:
Test in all cases: BLI
[1] = target: T1, STK19 RR-AA (xl) R206A,R207A (Xenopus laevis) (UniProt A0ABF7TX19); conditions: 500 nM STK19, strongly impaired; BLI: ELB (10 mM HEPES pH 7.7, 50 mM KCl, 2.5 mM MgCl2, 250 mM sucrose) + 0.05% Tween-20, 5 mg/ml BSA, 30 C; recombinant …; label: 5'-biotin on strand 1
T1 sequence (looked up, limits assumed): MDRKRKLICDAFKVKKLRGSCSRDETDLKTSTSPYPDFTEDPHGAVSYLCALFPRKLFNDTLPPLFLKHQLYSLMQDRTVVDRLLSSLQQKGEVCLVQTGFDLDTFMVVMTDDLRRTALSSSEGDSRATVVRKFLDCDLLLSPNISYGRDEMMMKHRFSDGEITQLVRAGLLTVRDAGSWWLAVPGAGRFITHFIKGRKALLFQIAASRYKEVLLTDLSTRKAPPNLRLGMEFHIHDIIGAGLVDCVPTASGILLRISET

[2] = target: T2, STK19 R207A (xl) (Xenopus laevis) (UniProt A0ABF7TX19); conditions: 500 nM STK19; BLI: ELB (10 mM HEPES pH 7.7, 50 mM KCl, 2.5 mM MgCl2, 250 mM sucrose) + 0.05% Tween-20, 5 mg/ml BSA, 30 C; recombinant protein; label: 5'-biotin on strand 1
T2 sequence (looked up, limits assumed): T1 sequence (looked up, limits assumed) with A206R

[3] = target: T3, STK19 R206A (xl) (Xenopus laevis) (UniProt A0ABF7TX19); conditions: 500 nM STK19; BLI: ELB (10 mM HEPES pH 7.7, 50 mM KCl, 2.5 mM MgCl2, 250 mM sucrose) + 0.05% Tween-20, 5 mg/ml BSA, 30 C; recombinant protein; label: 5'-biotin on strand 1
T3 sequence (looked up, limits assumed): T1 sequence (looked up, limits assumed) with A207R

Measured: binding result

TATGGACAGCAAGC (double strand) [BLI 14-mer duplex (oTM626/oTM629)]
binds more weakly: all assays above
